# Primary screen of a compound library

By UniProt entry, the sequences of proteins in these tests, tags left out.
UniProt E9BF75, entry or part of it: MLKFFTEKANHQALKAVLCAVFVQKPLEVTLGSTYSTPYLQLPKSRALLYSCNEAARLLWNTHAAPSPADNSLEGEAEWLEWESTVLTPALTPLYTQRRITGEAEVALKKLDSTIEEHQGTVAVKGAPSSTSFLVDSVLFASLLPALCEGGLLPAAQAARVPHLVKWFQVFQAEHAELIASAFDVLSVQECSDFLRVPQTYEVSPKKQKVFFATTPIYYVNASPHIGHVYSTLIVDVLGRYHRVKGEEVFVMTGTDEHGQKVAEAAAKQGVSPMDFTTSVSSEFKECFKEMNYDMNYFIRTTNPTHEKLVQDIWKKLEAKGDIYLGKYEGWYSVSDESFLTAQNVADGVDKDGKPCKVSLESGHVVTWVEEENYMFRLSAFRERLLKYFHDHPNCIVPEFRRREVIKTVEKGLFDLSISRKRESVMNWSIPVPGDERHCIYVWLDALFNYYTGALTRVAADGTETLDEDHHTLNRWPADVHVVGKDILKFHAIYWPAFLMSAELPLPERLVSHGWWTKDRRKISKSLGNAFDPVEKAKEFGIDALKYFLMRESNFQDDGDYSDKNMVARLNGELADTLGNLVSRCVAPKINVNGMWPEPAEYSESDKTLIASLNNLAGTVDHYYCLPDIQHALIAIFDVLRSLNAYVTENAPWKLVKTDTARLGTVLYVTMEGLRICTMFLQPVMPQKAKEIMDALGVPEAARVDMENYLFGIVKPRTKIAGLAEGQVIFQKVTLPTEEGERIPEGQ

Measurements from “University of Dundee, Small-Polar-MMV Screening Library” (2021), ChEMBL document CHEMBL3988442.

Results are percentages, as filed.
The controls that fix the scale are not given in the record; negative values are as filed.
The compounds are a random part of those screened.

Mtb heat-shock: 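Assay on Mycobacterium tuberculosis, filed only as a heat shock assay from Cornell; the read-out is not stated. The concentration is filed as 10 mM, unlikely as a test dose, so the dose is not known. The record gives no direction; compounds that gave an IC50 in retests scored well above the rest, so higher reads as stronger inhibition. About 69,000 compounds were tested under these conditions; 1.4% (about 930) showed 50% or more at least once.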
Mtb growth Cornell: 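Whole-cell assay for inhibitors of Mycobacterium tuberculosis growth, labelled Cornell in the record; the read-out is not stated. The concentration is filed as 10 mM, unlikely as a test dose, so the dose is not known. The record gives no direction; compounds strong in two other growth screens of this library score well above the rest, so higher reads as stronger inhibition. Of about 53,000 compounds tested this way, about 900 (1.7%) reached 50% or more in at least one test.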
LdMetRS: 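Primary screen of methionyl-tRNA synthetase; the read-out is not stated. Target: Methionyl-tRNA synthetase (putative), Leishmania donovani (UniProt E9BF75). The test concentration is not given. Values are per cent inhibition. Size under these conditions: about 68,000 compounds, about 24 of them at 50% or above in at least one test.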

For COC(=O)c1cc(C(=O)N2CCC(C)CC2)n(-c2ccccc2)n1 the result was Mtb heat-shock: -20.73%; LdMetRS: 9.836%.
For [H][C@@]12CS(=O)(=O)C[C@]1([H])N(S(=O)(=O)N1CCCC1)CCN2Cc1ccccc1 the result was Mtb heat-shock: -1.789%; Mtb growth Cornell: 23.57%.
For Cc1ccc(S(=O)(=O)N2CCC(Oc3cccnn3)CC2)c(C)c1 the result was Mtb heat-shock: -6.181%; Mtb growth Cornell: 12.99%; LdMetRS: 3.846%.
For CCS(=O)(=O)N1CCN(C(=O)c2cnc3[nH]nc(C)c3c2)CC1 the result was Mtb heat-shock: -3.506%; Mtb growth Cornell: -14.45%; LdMetRS: 23.43%.
For FC(F)(F)C1CN(c2nc(-c3ccccc3)no2)CCO1 (stereo not shown) the result was Mtb heat-shock: -2.547%; Mtb growth Cornell: 26.76%; LdMetRS: 8.247%.
For Cc1n[nH]c(C)c1C1CCCN1C(=O)NC(C)(C)C (stereo not shown) the result was Mtb heat-shock: -4.225%; Mtb growth Cornell: -15.75%; LdMetRS: 12.72%.
For O=C1C(NS(=O)(=O)c2ccc(F)c(F)c2)CCN1Cc1ccccc1 (stereo not shown) the result was Mtb heat-shock: -3.831%; LdMetRS: 13.8%.
For CC(C)N(C)Cc1cnc2n1CCN(Cc1cccc(F)c1)C2.O=C(O)C(F)(F)F.O=C(O)C(F)(F)F the result was Mtb heat-shock: -5.438%.
For COc1cccc(-c2cccc(-c3ccn(CC4COCCO4)n3)c2)n1 (stereo not shown) the result was Mtb heat-shock: -12.43%; Mtb growth Cornell: -2.003%; LdMetRS: 12.54%.
For FC(F)(F)C1CN(Cc2cnc3c(-c4ccccc4)cnn3c2)CCO1 (stereo not shown) the result was Mtb heat-shock: -4.668%; Mtb growth Cornell: 19.99%; LdMetRS: 4.11%.
For Cc1ccc(C(NC(=O)Cn2cc(C3CC3)nn2)C2CC2)cc1 (stereo not shown) the result was Mtb heat-shock: 2.109%; Mtb growth Cornell: 7.138%; LdMetRS: 12.2%.
For CC1(Cc2ccc(F)cc2)Cc2cc(C(=O)NCCO)ccc2O1 (stereo not shown) the result was Mtb heat-shock: 7.422%; Mtb growth Cornell: 0.603%; LdMetRS: 4.984%.
For Cc1ccc(C(=O)N2CCN(S(C)(=O)=O)CC2)cc1N1CCNC1=O the result was Mtb heat-shock: -7.715%; Mtb growth Cornell: 5.973%; LdMetRS: 19.51%.
For COc1ccccc1CC(=O)N1CCCC(c2nccn2CC(N)=O)C1 (stereo not shown) the result was Mtb heat-shock: -25.37%; Mtb growth Cornell: -34.01%; LdMetRS: 5.389%.
For CCC(C)NC(=O)c1cc(S(=O)(=O)N2CCCC2)c(C)s1 (stereo not shown) the result was Mtb heat-shock: -4.503%; Mtb growth Cornell: 40.3%; LdMetRS: 17.3%.
For Cc1nc(CNC(C(=O)N2CCOCC2)C(C)C)no1 (stereo not shown) the result was Mtb heat-shock: 13.43%; Mtb growth Cornell: 9.564%; LdMetRS: 7.246%.
For CC(=O)N1CCN(C(=O)NCCc2ccc(Cl)s2)CC1 the result was Mtb heat-shock: 7.942%; Mtb growth Cornell: -28.83%; LdMetRS: 18.05%.
For COCC(NC(=O)c1ccoc1C)c1cccc(C(F)(F)F)c1 (stereo not shown) the result was Mtb heat-shock: -29.24%; Mtb growth Cornell: 6.384%; LdMetRS: 6.267%.
For CCOCC(=O)N1CCC2(CC1)COCCN2CCN(C)C.O=C(O)C(F)(F)F.O=C(O)C(F)(F)F the result was Mtb heat-shock: -28.01%; Mtb growth Cornell: 11.74%.

The first 2 entries again:

* COC(=O)c1cc(C(=O)N2CCC(C)CC2)n(-c2ccccc2)n1 | Mtb heat-shock: -20.73%; LdMetRS: 9.836%
* [H][C@@]12CS(=O)(=O)C[C@]1([H])N(S(=O)(=O)N1CCCC1)CCN2Cc1ccccc1 | Mtb heat-shock: -1.789%; Mtb growth Cornell: 23.57%